These are yes or no findings as the source states them, for the method shown. In cells and extracts the contact can be indirect. These calls come from enrichment with a bait or labelling near it, and not all partners need be listed.
Molecular target: RB1-inducible coiled-coil 1 (RB1CC1), endogenous in MCF-7 cells (human (endogenous in MCF-7)) (UniProt Q8TDY2)
Experiment: affinity purification with mass spectrometry; MCF-7 lysate in EBC lysis buffer, immunoprecipitated with anti-RB1CC1 purified IgG at 4°C overnight, protein G-agarose, washed with NETN; SDS-PAGE, silver staining, band identified by LC-MS/MS

Sequences of proteins named here, by UniProt entry; tags and fusion partners are left off.
UniProt Q8TDY2: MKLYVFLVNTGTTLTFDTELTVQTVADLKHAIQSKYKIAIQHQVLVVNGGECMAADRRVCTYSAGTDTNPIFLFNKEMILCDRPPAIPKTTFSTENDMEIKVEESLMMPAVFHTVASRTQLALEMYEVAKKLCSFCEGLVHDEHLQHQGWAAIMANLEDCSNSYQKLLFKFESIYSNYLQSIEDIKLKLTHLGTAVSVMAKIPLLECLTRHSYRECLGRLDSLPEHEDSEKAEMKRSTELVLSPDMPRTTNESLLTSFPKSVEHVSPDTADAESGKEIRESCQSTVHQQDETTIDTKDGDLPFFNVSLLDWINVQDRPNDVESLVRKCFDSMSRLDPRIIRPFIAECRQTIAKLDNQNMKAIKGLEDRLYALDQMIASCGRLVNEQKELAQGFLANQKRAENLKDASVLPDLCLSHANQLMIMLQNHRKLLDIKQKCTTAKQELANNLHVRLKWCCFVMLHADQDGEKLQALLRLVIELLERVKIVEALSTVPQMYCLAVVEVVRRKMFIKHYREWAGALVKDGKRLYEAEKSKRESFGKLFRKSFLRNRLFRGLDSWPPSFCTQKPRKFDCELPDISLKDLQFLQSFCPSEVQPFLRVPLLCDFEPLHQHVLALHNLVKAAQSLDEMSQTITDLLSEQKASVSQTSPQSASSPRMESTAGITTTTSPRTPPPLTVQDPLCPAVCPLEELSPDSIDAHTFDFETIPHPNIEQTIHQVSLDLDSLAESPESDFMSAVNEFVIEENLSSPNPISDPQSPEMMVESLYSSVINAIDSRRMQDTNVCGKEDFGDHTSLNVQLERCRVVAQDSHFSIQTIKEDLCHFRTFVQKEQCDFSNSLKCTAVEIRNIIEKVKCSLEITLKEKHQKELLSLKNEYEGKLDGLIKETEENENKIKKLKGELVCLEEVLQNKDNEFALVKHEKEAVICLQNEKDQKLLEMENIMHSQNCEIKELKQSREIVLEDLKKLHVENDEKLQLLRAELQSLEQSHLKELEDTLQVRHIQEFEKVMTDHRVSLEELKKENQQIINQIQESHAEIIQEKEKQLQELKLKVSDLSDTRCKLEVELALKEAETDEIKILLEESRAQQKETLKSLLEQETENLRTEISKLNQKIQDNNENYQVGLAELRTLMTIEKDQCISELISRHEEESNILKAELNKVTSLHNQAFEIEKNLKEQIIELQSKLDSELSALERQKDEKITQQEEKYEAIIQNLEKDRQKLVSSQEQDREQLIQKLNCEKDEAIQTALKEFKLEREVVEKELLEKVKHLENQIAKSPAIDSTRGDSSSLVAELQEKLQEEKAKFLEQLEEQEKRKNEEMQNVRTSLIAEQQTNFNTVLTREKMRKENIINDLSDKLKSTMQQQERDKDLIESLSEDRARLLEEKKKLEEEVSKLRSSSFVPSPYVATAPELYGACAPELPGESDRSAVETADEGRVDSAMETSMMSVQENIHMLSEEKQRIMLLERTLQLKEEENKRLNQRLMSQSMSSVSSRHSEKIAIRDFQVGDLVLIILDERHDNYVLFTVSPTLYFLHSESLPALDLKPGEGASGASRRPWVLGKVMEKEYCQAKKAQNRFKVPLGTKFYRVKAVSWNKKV
UniProt Q12824: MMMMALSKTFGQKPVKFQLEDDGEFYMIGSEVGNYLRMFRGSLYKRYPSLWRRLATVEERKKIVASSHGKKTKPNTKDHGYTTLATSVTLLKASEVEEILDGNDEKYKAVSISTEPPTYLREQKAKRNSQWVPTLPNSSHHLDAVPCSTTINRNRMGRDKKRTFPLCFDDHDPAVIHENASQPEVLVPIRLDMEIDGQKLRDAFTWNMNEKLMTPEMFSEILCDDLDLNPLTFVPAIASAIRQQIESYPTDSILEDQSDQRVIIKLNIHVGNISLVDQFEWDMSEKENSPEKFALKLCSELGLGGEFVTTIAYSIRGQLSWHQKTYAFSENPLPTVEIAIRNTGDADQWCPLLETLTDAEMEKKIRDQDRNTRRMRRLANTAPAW

Question: With “hSNF5, endogenous in MCF-7 cells (from UniProt Q12824 1-385)” as the substance, how does the binding read?
Answer: The binding was “binds”.
